Five compounds from the supplement of paper PMC9446081 can be followed below.

Molecules are shown by their SMILES. This list holds what a sample rich in hits left over.
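Note: Wild-type cells incubated without shaking, value is the mean of two biological replicates.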

This test relates to Escherichia coli K-12 BW25113. Description: relative growth (OD600 normalised to plate interquartile mean) (fraction); higher = less growth inhibition, active = 0.2 or less. Conditions: 50 µM; LB; incubation time: overnight (16-24 h).
On to `CCC(C)C(C(=O)OCC[N+](C)(CC)CC)c1ccccc1.[Br-]` (stereo not given), for which the relative growth was inactive: 0.857.
For `CN1CCN(CCCN2c3ccccc3Sc3ccc(Cl)cc32)CC1.O=S(=O)(O)CCS(=O)(=O)O`, the relative growth is inactive: 0.844.
With `CCOc1cc(NC(C)=O)ccc1C(=O)OC` the figure was inactive: 1.14.
For the compound `Br.CN1C2CCC1CC(OC(=O)C(O)c1ccccc1)C2` (stereo not given), the relative growth is inactive: 1.11.
For the compound `C[C@@H]1C[C@H](N)C[C@H](c2ccncc2NC(=O)c2ccc(F)c(-c3c(F)cccc3F)n2)C1`, the relative growth is inactive: 0.974.
